The source of these data is patent publication US11957127B1, “1,3-bis(naphthalen-2-yloxy)propan-2-one as an eco-friendly insecticidal agent against Spodoptera littoralis (boisd.)” (priority 2023, dated 2024).

For the data set, the system named is Spodoptera littoralis. Kind of data set: Insecticidal bioassay screening (castor leaf dip, larval mortality). It counts as in vivo. Conditions: 72 h, slope of regression (LDP) line. The method, then:
Five concentrations (200, 100, 50, 25, 12.5 ppm) were designed for this synthetic compound and the reference fenoxycarb compound as the dynamic ingredients based on ppm via diluting the commercial formulation.
In this experiment, castor leaves are immersed in each of the previously prepared concentrations of the components for 10 seconds and then left to dry for 60 minutes. Larvae of the second and fourth instars of each checked strain are prepared with treated leaves in gauze-covered glass containers for 72 hrs. An untreated control is made in which leaves are dipped in triton x-100 and distilled water only. Then the preserved leaves were removed & fresh, untreated leaves were provided for 72 hours. Three replicates (10 larvae each) were checked for each concentration. Daily inspection was carried out for all treatments and mortality percentages were recorded 3 days (72 hours) after treatment. The average mortality percentage was corrected employing Abbott's formula. The corrected mortality rate for each of the previously synthesized compounds is statistically calculated according to Finney (1970). Through this rate, the corresponding concentration test lines (LDP lines) are assessed. Fifty and ninety percent mortality are determined, and the regression values for the checked products were previously evaluated.

In the case of `O=C(COc1ccc2ccccc2c1)COc1ccc2ccccc2c1` [Compound 4, 1,3-bis(naphthalen-2-yloxy)propan-2-one], the “slope ± SE” value amounted to 0.256 ± 0.082 (2nd instar larvae of S. littoralis) and 0.231 ± 0.0823 (4th instar larvae of S. littoralis).
